{"source": "patent US20250144187A1", "about": "“COMBINATION OF HYDROLASES AND ANTI-MICROORGANISM DRUGS AND USES THEREOF” (CENTRE FOR EYE AND VISION RESEARCH LIMITED, priority 2023, published 2025)", "test_system": "MRSA ocular infection", "assay": "Ocular infection model, tedizolid phosphate/lysozyme", "format": "in vivo, C57BL/6 mice", "conditions": "mono-therapy groups, 48-hr post-inoculation", "text": "20) Ocular infection model. According to the reported method [Zhang, Z et al., Curt. Protoc, mouse Bot 7, 55-63 (2017)], 40 C57BL/6, male mice ([…]) were used to evaluate the combination effect in the ocular infection model. Specifically, all mice were divided into 5 groups (4 infected groups and 1 uninfected group, 8 mice per group). Among than, 32 mice in infected groups were infected by slowly inoculating about 2.5×10^7 CFUs of mid-log phase MRSA into each ocular surface. To collect these mid-tog phase ARA, a colony of MRSA cultured in LB-agar plate was firstly picked up and inoculated into fresh LB medium for overnight incubation at 37° C. Then, the overnight culture was diluted (1:300) into fresh LB medium for continuous culture until bacterial OD600 was about 0.6. […] Next, 2.5 μl of bacterial suspensions were slowly inoculated into each ocular surface of anesthetized C57/BL6 mouse on the side of surgical bed. […] After that, they were repeated from the air-anesthetizing room and monitored until they were fully awake, followed by retuned to their cages. […] Then, according to the standard protocol^28, 3 μl of tear fluid was gradient-diluted at 10-fold in 96-well plat to figure out the initial number of viable bacteria in tear fluid according to quantitative grown colony after overnight culture. […]", "note": "Some of these results come from one statement about several compounds together."}
{"smiles": "Cn1nnc(-c2ccc(-c3ccc(N4C[C@H](COP(=O)(O)O)OC4=O)cc3F)cn2)n1", "note": "[tedizolid phosphate, Tedizolid Phosphate]", "values": [{"measurement": "invasion ratios of epithelial cells in tear fluids", "value": "> 60", "unit": "%"}]}
